# According to the supplement of paper PMC6411743:
# Amino acid sequences for entries named in this document (tags omitted). A change or cut given only in a name is not applied to a line headed by its entry.
# UniProt Q96ST3: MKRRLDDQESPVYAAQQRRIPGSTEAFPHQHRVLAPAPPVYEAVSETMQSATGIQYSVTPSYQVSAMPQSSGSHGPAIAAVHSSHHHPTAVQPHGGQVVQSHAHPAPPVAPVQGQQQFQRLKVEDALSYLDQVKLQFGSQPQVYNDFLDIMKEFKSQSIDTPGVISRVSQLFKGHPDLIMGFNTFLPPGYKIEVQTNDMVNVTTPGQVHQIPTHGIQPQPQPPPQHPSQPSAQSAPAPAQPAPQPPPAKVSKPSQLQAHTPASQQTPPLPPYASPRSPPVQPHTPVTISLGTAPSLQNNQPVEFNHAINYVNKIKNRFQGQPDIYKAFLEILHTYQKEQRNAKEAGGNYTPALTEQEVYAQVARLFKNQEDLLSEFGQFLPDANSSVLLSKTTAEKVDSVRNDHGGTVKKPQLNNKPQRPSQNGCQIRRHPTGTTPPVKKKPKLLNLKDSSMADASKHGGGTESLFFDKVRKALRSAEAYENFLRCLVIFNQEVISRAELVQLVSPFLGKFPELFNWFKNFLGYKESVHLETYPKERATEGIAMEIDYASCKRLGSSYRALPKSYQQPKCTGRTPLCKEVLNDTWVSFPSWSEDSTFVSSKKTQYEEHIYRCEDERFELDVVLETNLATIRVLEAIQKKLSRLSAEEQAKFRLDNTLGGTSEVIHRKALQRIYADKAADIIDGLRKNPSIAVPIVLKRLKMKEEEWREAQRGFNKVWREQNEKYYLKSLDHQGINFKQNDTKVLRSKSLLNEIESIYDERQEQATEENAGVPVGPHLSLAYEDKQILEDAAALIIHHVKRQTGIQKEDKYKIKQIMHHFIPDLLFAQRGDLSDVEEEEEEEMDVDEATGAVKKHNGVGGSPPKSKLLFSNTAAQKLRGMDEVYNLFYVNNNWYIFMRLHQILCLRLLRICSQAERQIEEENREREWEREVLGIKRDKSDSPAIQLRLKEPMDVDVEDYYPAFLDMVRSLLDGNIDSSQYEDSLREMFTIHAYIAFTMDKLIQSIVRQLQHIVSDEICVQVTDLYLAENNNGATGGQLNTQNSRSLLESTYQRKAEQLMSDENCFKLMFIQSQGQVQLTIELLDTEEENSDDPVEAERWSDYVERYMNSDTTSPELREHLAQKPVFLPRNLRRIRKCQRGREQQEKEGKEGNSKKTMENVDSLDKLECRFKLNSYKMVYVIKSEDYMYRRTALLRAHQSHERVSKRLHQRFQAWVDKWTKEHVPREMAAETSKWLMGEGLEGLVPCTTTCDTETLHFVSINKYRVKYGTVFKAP
# UniProt Q99719: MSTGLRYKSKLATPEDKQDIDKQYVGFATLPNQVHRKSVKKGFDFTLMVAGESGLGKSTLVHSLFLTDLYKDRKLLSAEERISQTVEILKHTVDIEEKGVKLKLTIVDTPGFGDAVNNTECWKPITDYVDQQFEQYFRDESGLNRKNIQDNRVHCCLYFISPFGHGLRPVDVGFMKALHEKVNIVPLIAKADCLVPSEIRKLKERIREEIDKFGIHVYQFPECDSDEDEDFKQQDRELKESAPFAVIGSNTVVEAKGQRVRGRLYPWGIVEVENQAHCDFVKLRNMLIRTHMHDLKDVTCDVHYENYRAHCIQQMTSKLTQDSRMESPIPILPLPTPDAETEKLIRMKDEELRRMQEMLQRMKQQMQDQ
# UniProt Q99623, whole entry: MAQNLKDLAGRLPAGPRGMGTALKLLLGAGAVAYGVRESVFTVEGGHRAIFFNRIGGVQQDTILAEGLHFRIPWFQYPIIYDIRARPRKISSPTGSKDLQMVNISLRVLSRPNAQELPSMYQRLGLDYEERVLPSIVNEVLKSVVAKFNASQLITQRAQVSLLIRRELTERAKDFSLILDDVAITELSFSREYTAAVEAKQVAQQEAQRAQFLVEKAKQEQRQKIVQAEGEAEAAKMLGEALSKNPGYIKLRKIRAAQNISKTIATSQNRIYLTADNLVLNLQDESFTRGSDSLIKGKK
# UniProt Q96RS0: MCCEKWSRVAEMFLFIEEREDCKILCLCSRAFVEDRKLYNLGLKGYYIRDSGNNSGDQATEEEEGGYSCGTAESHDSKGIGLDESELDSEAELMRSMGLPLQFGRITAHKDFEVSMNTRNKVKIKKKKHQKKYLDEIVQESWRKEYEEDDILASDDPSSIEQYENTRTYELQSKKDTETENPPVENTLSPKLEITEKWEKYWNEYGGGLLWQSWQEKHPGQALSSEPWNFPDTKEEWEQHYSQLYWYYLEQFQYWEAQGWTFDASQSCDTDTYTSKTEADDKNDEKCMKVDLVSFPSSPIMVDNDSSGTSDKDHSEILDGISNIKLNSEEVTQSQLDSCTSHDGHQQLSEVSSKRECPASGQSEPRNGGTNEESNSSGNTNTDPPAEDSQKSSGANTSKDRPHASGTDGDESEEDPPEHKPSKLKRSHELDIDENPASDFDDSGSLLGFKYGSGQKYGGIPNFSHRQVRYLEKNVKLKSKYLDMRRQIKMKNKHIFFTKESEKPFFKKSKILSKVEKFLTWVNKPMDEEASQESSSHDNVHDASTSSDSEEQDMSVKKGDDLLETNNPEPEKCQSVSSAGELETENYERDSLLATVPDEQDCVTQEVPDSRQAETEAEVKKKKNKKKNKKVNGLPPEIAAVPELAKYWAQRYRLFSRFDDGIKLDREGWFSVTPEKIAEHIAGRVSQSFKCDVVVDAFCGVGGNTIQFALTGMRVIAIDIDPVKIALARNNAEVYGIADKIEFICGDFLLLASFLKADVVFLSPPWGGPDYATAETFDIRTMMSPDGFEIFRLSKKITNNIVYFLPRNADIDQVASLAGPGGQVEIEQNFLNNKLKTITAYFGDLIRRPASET
# UniProt Q96T23: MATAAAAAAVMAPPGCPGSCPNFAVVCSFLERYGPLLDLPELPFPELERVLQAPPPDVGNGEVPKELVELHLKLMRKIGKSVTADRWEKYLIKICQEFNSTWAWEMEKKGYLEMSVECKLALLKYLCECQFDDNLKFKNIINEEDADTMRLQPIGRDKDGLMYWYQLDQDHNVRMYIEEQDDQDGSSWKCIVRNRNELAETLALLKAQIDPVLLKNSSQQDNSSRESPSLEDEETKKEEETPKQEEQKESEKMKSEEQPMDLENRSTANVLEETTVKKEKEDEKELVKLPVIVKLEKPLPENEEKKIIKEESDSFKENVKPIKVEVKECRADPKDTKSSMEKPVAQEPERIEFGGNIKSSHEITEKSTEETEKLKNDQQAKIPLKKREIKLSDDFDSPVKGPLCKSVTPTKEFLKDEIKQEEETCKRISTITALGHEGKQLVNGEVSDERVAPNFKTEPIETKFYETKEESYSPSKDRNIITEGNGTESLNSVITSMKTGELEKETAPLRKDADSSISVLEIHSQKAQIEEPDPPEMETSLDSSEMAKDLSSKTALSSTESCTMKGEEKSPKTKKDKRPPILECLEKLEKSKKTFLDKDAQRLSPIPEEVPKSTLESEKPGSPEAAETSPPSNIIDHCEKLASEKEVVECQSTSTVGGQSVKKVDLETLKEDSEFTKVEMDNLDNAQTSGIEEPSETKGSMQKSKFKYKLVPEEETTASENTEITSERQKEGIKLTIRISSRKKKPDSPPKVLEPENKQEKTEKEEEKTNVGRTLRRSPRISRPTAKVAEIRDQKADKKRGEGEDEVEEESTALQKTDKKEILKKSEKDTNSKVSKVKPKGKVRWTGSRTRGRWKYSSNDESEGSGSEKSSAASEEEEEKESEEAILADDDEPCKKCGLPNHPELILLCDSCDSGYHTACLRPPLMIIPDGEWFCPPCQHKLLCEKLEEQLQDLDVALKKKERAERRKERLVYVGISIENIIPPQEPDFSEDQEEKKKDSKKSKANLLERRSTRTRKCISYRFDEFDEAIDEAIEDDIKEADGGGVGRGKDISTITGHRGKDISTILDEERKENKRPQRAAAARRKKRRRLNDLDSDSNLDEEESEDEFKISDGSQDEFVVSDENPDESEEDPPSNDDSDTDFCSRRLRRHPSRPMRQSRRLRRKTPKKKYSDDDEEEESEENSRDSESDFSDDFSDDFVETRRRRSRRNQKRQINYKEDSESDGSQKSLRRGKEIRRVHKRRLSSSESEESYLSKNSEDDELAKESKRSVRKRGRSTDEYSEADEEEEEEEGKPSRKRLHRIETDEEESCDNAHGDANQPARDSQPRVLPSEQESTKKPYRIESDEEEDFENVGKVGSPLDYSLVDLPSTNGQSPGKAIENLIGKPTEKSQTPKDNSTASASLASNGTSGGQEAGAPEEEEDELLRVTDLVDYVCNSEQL
# UniProt Q99615: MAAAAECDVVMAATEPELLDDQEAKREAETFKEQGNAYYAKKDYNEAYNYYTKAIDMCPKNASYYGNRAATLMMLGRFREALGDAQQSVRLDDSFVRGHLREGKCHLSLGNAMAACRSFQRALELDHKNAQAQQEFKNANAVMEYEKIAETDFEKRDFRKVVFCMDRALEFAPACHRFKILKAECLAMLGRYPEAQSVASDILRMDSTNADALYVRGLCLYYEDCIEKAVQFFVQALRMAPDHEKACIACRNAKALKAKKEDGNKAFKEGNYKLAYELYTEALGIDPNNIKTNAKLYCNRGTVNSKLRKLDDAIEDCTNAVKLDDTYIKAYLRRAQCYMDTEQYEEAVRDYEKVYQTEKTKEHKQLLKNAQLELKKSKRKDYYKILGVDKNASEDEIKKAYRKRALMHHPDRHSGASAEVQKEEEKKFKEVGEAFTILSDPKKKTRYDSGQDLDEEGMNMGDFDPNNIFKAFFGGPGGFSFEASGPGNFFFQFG
# UniProt Q9BXM9: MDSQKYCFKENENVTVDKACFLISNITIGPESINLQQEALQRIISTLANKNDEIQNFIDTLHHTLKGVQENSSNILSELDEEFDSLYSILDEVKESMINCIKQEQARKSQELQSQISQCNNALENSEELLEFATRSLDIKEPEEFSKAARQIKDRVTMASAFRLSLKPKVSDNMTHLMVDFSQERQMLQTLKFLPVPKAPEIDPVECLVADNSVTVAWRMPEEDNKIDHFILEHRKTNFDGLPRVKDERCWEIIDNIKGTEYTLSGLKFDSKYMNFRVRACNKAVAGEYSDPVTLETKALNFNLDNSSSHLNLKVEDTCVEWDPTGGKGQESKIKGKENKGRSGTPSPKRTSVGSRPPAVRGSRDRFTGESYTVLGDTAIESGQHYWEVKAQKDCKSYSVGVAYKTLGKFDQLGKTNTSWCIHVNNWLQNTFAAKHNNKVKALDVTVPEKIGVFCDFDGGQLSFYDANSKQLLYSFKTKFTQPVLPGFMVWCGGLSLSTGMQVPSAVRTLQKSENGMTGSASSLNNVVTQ
# UniProt Q9BX67: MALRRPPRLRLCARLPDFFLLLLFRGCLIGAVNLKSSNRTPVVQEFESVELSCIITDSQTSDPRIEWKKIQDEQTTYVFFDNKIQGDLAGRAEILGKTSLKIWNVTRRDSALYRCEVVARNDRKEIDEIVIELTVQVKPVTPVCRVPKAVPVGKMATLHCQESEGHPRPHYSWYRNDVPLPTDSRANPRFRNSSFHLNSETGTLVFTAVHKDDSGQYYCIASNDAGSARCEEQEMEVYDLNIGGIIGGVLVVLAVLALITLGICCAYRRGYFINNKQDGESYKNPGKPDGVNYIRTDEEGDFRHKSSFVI
# UniProt Q99575: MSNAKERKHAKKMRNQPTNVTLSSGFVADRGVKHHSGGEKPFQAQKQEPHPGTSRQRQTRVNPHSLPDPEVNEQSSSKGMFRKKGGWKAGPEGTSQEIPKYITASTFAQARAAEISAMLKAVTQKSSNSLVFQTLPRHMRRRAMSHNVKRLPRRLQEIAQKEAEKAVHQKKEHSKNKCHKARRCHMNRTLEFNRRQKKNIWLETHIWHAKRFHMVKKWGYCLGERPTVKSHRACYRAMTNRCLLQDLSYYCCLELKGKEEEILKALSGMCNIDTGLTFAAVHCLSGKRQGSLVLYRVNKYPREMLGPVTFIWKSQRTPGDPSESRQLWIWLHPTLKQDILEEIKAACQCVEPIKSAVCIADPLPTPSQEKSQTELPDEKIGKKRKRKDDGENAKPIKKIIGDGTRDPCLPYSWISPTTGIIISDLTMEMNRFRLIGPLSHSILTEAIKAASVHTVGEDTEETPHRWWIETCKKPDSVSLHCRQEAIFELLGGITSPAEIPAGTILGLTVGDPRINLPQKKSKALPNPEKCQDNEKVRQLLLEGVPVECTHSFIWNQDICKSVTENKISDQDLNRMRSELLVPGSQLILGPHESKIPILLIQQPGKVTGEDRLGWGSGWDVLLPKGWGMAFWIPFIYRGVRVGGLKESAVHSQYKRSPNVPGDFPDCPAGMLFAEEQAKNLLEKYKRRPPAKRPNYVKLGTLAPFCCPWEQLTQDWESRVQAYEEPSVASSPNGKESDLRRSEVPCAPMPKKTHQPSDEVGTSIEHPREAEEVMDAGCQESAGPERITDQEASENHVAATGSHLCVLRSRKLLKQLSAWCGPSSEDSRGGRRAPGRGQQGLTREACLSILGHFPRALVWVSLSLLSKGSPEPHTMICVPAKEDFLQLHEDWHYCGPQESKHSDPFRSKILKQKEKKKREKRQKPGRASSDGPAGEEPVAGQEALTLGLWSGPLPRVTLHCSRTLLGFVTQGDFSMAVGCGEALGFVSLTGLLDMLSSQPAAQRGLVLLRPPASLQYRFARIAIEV
# ± gives the standard deviation of the averaged measurements. Only a part is listed here, and it is no random draw.
# Compound: Nc1ncnc2c1ncn2[C@@H]1O[C@H](COP(=O)(O)OP(=O)(O)NP(=O)(O)O)[C@@H](O)[C@H]1O [adenylyl imidodiphosphate]
# Test: NP40-soluble protein abundance relative to vehicle (solubility fold change) (ratio); higher = more soluble protein in presence of AMP-PNP
# Summary of the method: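 Crude Jurkat lysate, prepared by Dounce homogenisation, was exposed to eight concentrations from 0.1 to 10 mM for 10 min at room temperature and then 3 min at 37 °C. Solubilisation used 0.8% NP40 with benzonase for 60 min at 4 °C, followed by ultracentrifugation and TMT labelling of the supernatant for LC-MS/MS. After vsn normalisation of intensities, each value is the fold change against the detergent-processed vehicle within each replicate, across three independent experiments.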
Target,NP40-soluble protein abundance (concentration: 1mM),NP40-soluble protein abundance (concentration: 2mM),NP40-soluble protein abundance (concentration: 4mM),NP40-soluble protein abundance (concentration: 6mM),NP40-soluble protein abundance (concentration: 8mM),NP40-soluble protein abundance (concentration: 10mM)
UniProt Q9BUV8 and related entries,1.01 ± 0.052,0.991 ± 0.024,1.06 ± 0.039,1.06 ± 0.023,1.12 ± 0.026,1.09 ± 0.016
CPPED1 (UniProt Q9BRF8),0.979 ± 0.049,0.932 ± 0.057,0.982 ± 0.02,0.976 ± 0.028,0.986 ± 0.043,0.938 ± 0.039
COPS4 (UniProt Q9BT78),0.932 ± 0.057,0.939 ± 0.017,0.927 ± 0.038,0.937 ± 0.086,0.967 ± 0.034,0.892 ± 0.083
PECR (UniProt Q9BY49),1.08 ± 0.016,1.07 ± 0.027,1.09 ± 0.028,1.09 ± 0.015,1.07 ± 0.028,1.12 ± 0.018
RNF2 (UniProt Q99496),1.02 ± 0.023,1.06 ± 0.045,1.06 ± 0.028,1.06 ± 0.025,1.1 ± 0.026,1.14 ± 0.028
SIN3A (UniProt Q96ST3),0.95 ± 0.02,0.941 ± 0.049,0.958 ± 0.037,0.947 ± 0.025,0.975 ± 0.043,0.979 ± 0.063
UniProt Q9BUE6 and related entries,0.991 ± 0.012,0.976 ± 0.033,0.968 ± 0.039,1.01 ± 0.047,1.012 ± 0.0095,1.03 ± 0.045
THUMPD3 (UniProt Q9BV44),0.962 ± 0.016,0.94 ± 0.016,0.9468 ± 0.0043,0.93 ± 0.018,0.912 ± 0.02,0.932 ± 0.017
UniProt Q99719 and related entries,1.069 ± 0.0045,1.01 ± 0.036,1.06 ± 0.046,1.04 ± 0.036,1.06 ± 0.097,1.04 ± 0.027
ARPC5L (UniProt Q9BPX5),1.04 ± 0.045,1.07 ± 0.06,1.07 ± 0.064,1 ± 0.036,0.998 ± 0.036,1.02 ± 0.047
UniProt Q99623,0.937 ± 0.043,0.869 ± 0.046,0.905 ± 0.045,1.01 ± 0.012,1 ± 0.024,0.98 ± 0.093
NIPSNAP1 (UniProt Q9BPW8),0.94 ± 0.05,0.873 ± 0.075,0.943 ± 0.028,0.954 ± 0.08,1.02 ± 0.036,0.948 ± 0.021
PSMB7 (UniProt Q99436),0.946 ± 0.04,0.909 ± 0.061,0.906 ± 0.057,0.928 ± 0.086,0.918 ± 0.081,0.9 ± 0.13
DSCC1 (UniProt Q9BVC3),0.994 ± 0.016,0.968 ± 0.035,0.995 ± 0.045,0.977 ± 0.017,0.974 ± 0.021,0.949 ± 0.025
UniProt Q9BSH4,0.994 ± 0.046,1.01 ± 0.044,1.02 ± 0.053,1.09 ± 0.079,1.07 ± 0.095,1.07 ± 0.058
UniProt Q96RS0 and related entries,0.9804 ± 0.0096,1.01 ± 0.019,1 ± 0.022,1 ± 0.028,0.999 ± 0.023,1.033 ± 0.009
WDR77 (UniProt Q9BQA1),0.966 ± 0.025,0.961 ± 0.056,0.987 ± 0.015,0.981 ± 0.012,0.991 ± 0.03,0.995 ± 0.035
UniProt Q9BW91 and related entries,1.01 ± 0.024,1.04 ± 0.066,1.01 ± 0.02,0.982 ± 0.015,0.974 ± 0.02,0.966 ± 0.051
MAK16 (UniProt Q9BXY0),1.05 ± 0.037,1.08 ± 0.015,1.05 ± 0.027,1.06 ± 0.053,1.1 ± 0.018,1.12 ± 0.015
PHF20 (UniProt Q9BVI0),1.06 ± 0.033,1.13 ± 0.048,1.12 ± 0.025,1.18 ± 0.042,1.16 ± 0.069,1.24 ± 0.046
UniProt Q99729-3,0.979 ± 0.074,1.06 ± 0.06,0.959 ± 0.079,0.995 ± 0.1,0.934 ± 0.068,0.99 ± 0.081
UniProt Q96T23 and related entries,1.07 ± 0.026,1.21 ± 0.11,1.32 ± 0.061,1.53 ± 0.18,1.67 ± 0.21,1.93 ± 0.25
DNAJC7 (UniProt Q99615),1.02 ± 0.012,1.05 ± 0.052,1.01 ± 0.015,1.03 ± 0.016,1.02 ± 0.013,1.04 ± 0.024
UniProt Q9BXM9 and related entries,0.992 ± 0.021,0.989 ± 0.038,0.998 ± 0.041,0.99 ± 0.017,0.972 ± 0.046,0.986 ± 0.029
UniProt Q9BX67,0.9896 ± 0.0023,1.02 ± 0.038,0.996 ± 0.011,1.022 ± 0.01,1.01 ± 0.012,1.04 ± 0.057
POP1 (UniProt Q99575),0.978 ± 0.031,0.982 ± 0.028,0.994 ± 0.024,0.965 ± 0.056,0.943 ± 0.053,0.954 ± 0.081

# No new results follow: an excerpt of the list.
Target,NP40-soluble protein abundance (concentration: 1mM),NP40-soluble protein abundance (concentration: 2mM),NP40-soluble protein abundance (concentration: 4mM),NP40-soluble protein abundance (concentration: 6mM),NP40-soluble protein abundance (concentration: 8mM),NP40-soluble protein abundance (concentration: 10mM)
CPPED1 (UniProt Q9BRF8),0.979 ± 0.049,0.932 ± 0.057,0.982 ± 0.02,0.976 ± 0.028,0.986 ± 0.043,0.938 ± 0.039
COPS4 (UniProt Q9BT78),0.932 ± 0.057,0.939 ± 0.017,0.927 ± 0.038,0.937 ± 0.086,0.967 ± 0.034,0.892 ± 0.083
